Measured values reported in patent US20110087153A1, “Transdermal Methods And Systems For The Delivery Of Rizatriptan” (priority 2009, published 2011).
Some results were stated once for a whole list of compounds, not compound by compound.

Assay: Permeation of formulated product through human cadaver skin (iontophoresis, gel formulations)
Format: in vitro ADME
Conditions: based on reasonable patch areas, lag time not considered
Protocol: Brij 30 (Laureth-4) and adipic acid were obtained from Fisher Scientific. Eudragit E*PO was obtained from Evonik. Human cadaver skin was thawed in 0.9% NaCl for 30 minutes and patted dry. The skin was cut into 2 cm square sections. The epidermis was placed towards the donor compartment of a […] PermeGear side-by-side diffusion cell. The donor gel was placed in the donor compartment and 3 ml of normal saline solution was placed in the receiver compartment. Three cells were dosed with zolmitriptan with 3.4% lauric acid, three cells were dosed with rizatriptan with 3.4% lauric acid and two cells were dosed with rizatriptan with 3.4% Brij 30. The cells were clamped at 1.27 mAmp (2 mAmp/cm^2). Two ml of each receiver compartment was sampled every 30 minutes and replaced with normal saline solution. Each 2 ml sample was diluted 1 to 100 with water. Zolmitriptan and sumatriptan were assayed by UV at 222 nm Rizatriptan was assayed by HPLC as previously described. Additional analysis of the permeation data was conducted to find the amount of time to dose 5 mg of drug based on reasonable patch areas, and is shown in Table 4. […] However, as was observed by the previous permeation data, zolmitriptan would need a total of 43 minutes when the lag-time is considered compared to 19 minutes for rizatriptan when the lag time is considered.

Compound | Time to deliver a 5 mg dose
CN(C)CCc1c[nH]c2ccc(Cn3cncn3)cc12 [Rizatriptan] | less than 15 minutes
CN(C)CCc1c[nH]c2ccc(C[C@H]3COC(=O)N3)cc12 [Zolmitriptan] | less than 15 minutes
